Measured data: PubChem BioAssay AID1259254 (NCATS, 2017)

- Assay: 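Finding genes that stop cells copying their DNA twice in one cycle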 (primary screen)
- Cell system: human HCT116 colorectal cancer cells
- Knock-down reagent: single siRNA against human genes
- Duration: 3 days
- Detection: 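Nuclei stained with Hoechst and imaged; cell-cycle phase assigned by DNA content; G2 share scaled per plate, non-targeting siRNA 0%, GMNN siRNA 100%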
- Direction: G2 robust z-score: higher = more G2 cells, more excess DNA replication
- Call rule: 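Active siRNAs have a G2 robust z of 5 or more median absolute deviations over the median, which in these data means about 38% or higher of GMNN control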
Here is an unselected part of about 59,000 reagents. Of all reagents, about 1,550 (2.6%) are marked active. 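G2 share is only a proxy for re-replication; each gene was hit by three separate siRNAs, and active genes were retested.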 Unmarked entries are inactive. Reagents against one gene are numbered here. Further read-outs or replicates are left out here. Reagent sequences are not shown. Not given: the amount of reagent.

{"gene":"TAF12 (TATA-box binding protein associated factor 12)","reagent no.":1,"G2 robust z-score":2.01}
{"gene":"TAF12 (TATA-box binding protein associated factor 12)","reagent no.":2,"G2 robust z-score":-0.437}
{"gene":"TAF12 (TATA-box binding protein associated factor 12)","reagent no.":3,"G2 robust z-score":-0.103}
{"gene":"ENTPD8 (ectonucleoside triphosphate diphosphohydrolase 8)","reagent no.":1,"G2 robust z-score":2.87}
{"gene":"ENTPD8 (ectonucleoside triphosphate diphosphohydrolase 8)","reagent no.":2,"G2 robust z-score":1.15}
{"gene":"ENTPD8 (ectonucleoside triphosphate diphosphohydrolase 8)","reagent no.":3,"G2 robust z-score":0.283}
{"gene":"GPR142 (G protein-coupled receptor 142)","reagent no.":1,"G2 robust z-score":2.32}
{"gene":"GPR142 (G protein-coupled receptor 142)","reagent no.":2,"G2 robust z-score":0.148}
{"gene":"GPR142 (G protein-coupled receptor 142)","reagent no.":3,"G2 robust z-score":-0.0614}
{"gene":"HAUS5 (HAUS augmin like complex subunit 5)","reagent no.":1,"G2 robust z-score":-0.0572}
{"gene":"HAUS5 (HAUS augmin like complex subunit 5)","reagent no.":2,"G2 robust z-score":0.216}
{"gene":"HAUS5 (HAUS augmin like complex subunit 5)","reagent no.":3,"G2 robust z-score":-0.702}
{"gene":"RSPH3 (radial spoke head 3)","reagent no.":1,"G2 robust z-score":0.255}
{"gene":"RSPH3 (radial spoke head 3)","reagent no.":2,"G2 robust z-score":-1.37}
{"gene":"RSPH3 (radial spoke head 3)","reagent no.":3,"G2 robust z-score":-0.958}
{"gene":"POLR2H (RNA polymerase II, I and III subunit H)","reagent no.":1,"G2 robust z-score":"6 (active)"}
{"gene":"POLR2H (RNA polymerase II, I and III subunit H)","reagent no.":2,"G2 robust z-score":3.24}
{"gene":"POLR2H (RNA polymerase II, I and III subunit H)","reagent no.":3,"G2 robust z-score":"6.15 (active)"}

Single entries from the list.
Value of HAUS5 (HAUS augmin like complex subunit 5) #2 in “G2 robust z-score”: 0.216
Result of GPR142 (G protein-coupled receptor 142) #3 in “G2 robust z-score”: -0.0614
